Binding data for one substance are collected here from publication PMC3469418, “New Partners in Regulation of Gene Expression: The Enhancer of Trithorax and Polycomb Corto Interacts with Methylated Ribosomal Protein L12 Via Its Chromodomain” (PLoS Genetics, 2012).

This assay has as its target T1, FLAG-tagged full-length Corto (D. melanogaster) (UniProt P41046).
T1 sequence: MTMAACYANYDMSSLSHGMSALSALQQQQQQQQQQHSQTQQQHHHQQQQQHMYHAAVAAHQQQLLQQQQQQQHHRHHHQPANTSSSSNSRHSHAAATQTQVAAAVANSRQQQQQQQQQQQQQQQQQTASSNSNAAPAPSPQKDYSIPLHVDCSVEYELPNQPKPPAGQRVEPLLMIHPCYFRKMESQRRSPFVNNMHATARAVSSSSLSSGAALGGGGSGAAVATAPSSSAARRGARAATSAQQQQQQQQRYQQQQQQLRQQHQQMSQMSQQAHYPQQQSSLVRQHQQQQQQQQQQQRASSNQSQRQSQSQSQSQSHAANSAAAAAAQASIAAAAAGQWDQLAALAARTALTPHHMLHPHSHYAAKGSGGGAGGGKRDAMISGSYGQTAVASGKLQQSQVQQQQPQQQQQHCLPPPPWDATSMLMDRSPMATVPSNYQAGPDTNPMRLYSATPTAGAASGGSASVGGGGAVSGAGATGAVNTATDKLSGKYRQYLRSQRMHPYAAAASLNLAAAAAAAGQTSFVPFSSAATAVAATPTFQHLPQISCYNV
In words: co-IP; S2 cells co-transfected with FLAG-tagged Corto constructs and Myc-tagged ribosomal proteins; cell extracts; immunoprecipitation with anti-FLAG or anti-Myc, Western blot with the same antibodies. For orientation: A western blot detects proteins with antibodies after separation by electrophoresis.

Results are given in words; binding and its absence hold for the method and conditions named. Binding seen in cells or lysates may run through a third protein. A result given as binding can be weak or reduced; the word gives no strength. Tags and fused reporters may be left off the sequences shown.

Consider “Myc-tagged RPL12 (Ribosomal Protein L12) (D. melanogaster)”, for which the binding entry is given as “binds”.
